Experimental findings from patent US20260083865A1 (priority 2022, published 2026) are described below.

Series [1] is described as follows: general procedure: Fmoc solid-phase peptide synthesis; PS, DEG or ChemMatrix resin with Rink amide, 2-chloro-trityl, 4-methyltrityl or FMPB linker; Sieber amide PS resin for p. To be noted: for isolated yield / isolated mass: whole synthesis; for step yield: late stage modification step.
Series [2] in a line: general procedure: Fmoc solid-phase peptide synthesis; PS resin with 4-methyl trityl linker. To be noted: whole synthesis, scale 100 μmol.
Series [3] in a line: general procedure: Fmoc solid-phase peptide synthesis; DEG Rink amide resin. To be noted: whole synthesis.
Series [4] can be described thus: general procedure: Fmoc solid-phase peptide synthesis; FMPB PS resin. The settings on record: whole synthesis, scale 50 μmol, one disulfide bridge.
Series [5] is described as follows: general procedure: Fmoc solid-phase peptide synthesis; PS resin with 2-chloro trityl linker. The settings on record: whole synthesis; for isolated mass / isolated yield: one disulfide bridge.
A short description of series [6]: general procedure: Fmoc solid-phase peptide synthesis; Sieber amide PS resin. To be noted: whole synthesis, scale 50 μmol.
Where [7] appears, read: scale 50 mol, one disulfide bridge.
[8] abbreviates: scale 50 μmol, one disulfide bridge.

Substance “AF488Ahx-Ttds-Ttds-Thr-Aib-Phe-[Cys-Lys-Arg-Aib-Asn-Cys]-Tle-Thr-Asp-NH2” returned a conjugation yield in series [1] (conjugation step, one disulfide bridge) of 41.3%. Further, the isolated yield entry in series [1] (overall, scale of the general procedure 25 μmol, 50 μmol or 100 μmol, one disulfide bridge) is listed as “overall yield 4%”. Take “Ac-Aib-Pcf-Cys-Lys(Me,Boc)-Arg(Pbf)-Aib-Asn(Trt)-Cys-Tle-en”: the isolated mass in series [2] is 14.52 mg. For the same substance, the isolated yield in series [1] (scale 100 μmol) came out at 9.5%.

In series [1] (scale 50 μmol), “Ac-Aib-Pcf-[Cys-Lys(Dde)-Arg-Aib-Asn-Cys]-Tle-en” had an isolated mass of 22.27 mg and an isolated yield of 16.7%.

Take “Ac-Aib-Pcf-[Cys-Lys(Me)-Arg-Aib-Asn-Cys]-Tle-en-DOTA”: the isolated mass in series [2] (one disulfide bridge) came to 5.54 mg. In series [1] (scale 100 μmol, one disulfide bridge), the isolated yield worked out at 3.5%. In series [3] (setting [7]), “Ac-Aib-Pcf-[Cys-Lys-Arg(Ac)-Aib-Asn-Cys]-Tle-Thr-Cmp-lys(DOTA)-NH2” displayed an isolated mass of 27.37 mg and an isolated yield of 28.7%. In series [1] (setting [8]), “Ac-Aib-Pcf-[Cys-Lys-Arg-Aib-Asn-Cys]-Tle-en-DOTA” yielded an isolated mass of 13.22 mg and an isolated yield of 8.5%.

“Ac-Aib-Pcf-[Cys-Lys-Gln(Gu)-Aib-Asn-Cys]-Tle-Thr-Cmp-lys(DOTA)-NH2”: in series [3] (setting [8]), the isolated mass is listed as 16.83 mg and the isolated yield is given as 17.9%. The matching figures for “Ac-Thr-Aib-Pcf-[Cys-Lys-Arg(Ac)-Aib-Asn-Cys]-Tle-Thr-NH2”: 1.46 mg and 2.1%. On the same counts, the results for “Ac-Thr-Aib-Pcf-[Cys-Nle-Gln(Gu)-Aib-Asn-Cys]-Tle-Thr-NH2” are 9.14 mg and 13.8%.

In series [4], “Ac-Thr-Aib-Phe-[Cys-Lys-Arg-Aib-Asn-Cys]-Tle-NHBu” displayed an isolated mass of 1.99 mg and an isolated yield of 3.2%. Consider “Ac-Thr-Aib-Phe-[Cys-Lys-Arg-Aib-Asn-Cys]-Tle-OH”, for which, in series [5] (scale 25 μmol), the isolated mass came out at 5.06 mg and the isolated yield was 16.9%. In series [3] (setting [8]), “Ac-Thr-Aib-Phe-[Cys-Lys-Arg-Aib-Asn-Cys]-Tle-Thr-Cmp-lys(DOTA)-NH2” gave an isolated mass of 16.95 mg and an isolated yield of 17.5%. The matching figures for “Ac-Thr-Aib-Phe-[Cys-Lys-Arg-Ala-Asn-Cys]-Tle-Thr-Asp-NH2”: 11.99 mg and 17.2%.

On to “Ac-Thr-Aib-Phe-[Smc-Lys-Arg-Ala-Asn-Cys]-Tle-Thr-Asp-NH2”, for which, in series [3] (scale 50 μmol), the isolated mass is 5.37 mg and the isolated yield is 7.6%. In turn, “BiDOTA-Cmp-Thr-Aib-Pcf-[Cys-Lys(Me)-Arg(Me)-Aib-Asn-Cys]-Tle-Thr-NH2” yielded a step yield in series [1] (one disulfide bridge) of 81.88%. “DOTA(OtBu)3-Cmp-Thr(tBu)-Aib-Pcf-Cys(Trt)-Lys(Boc)-Arg(Pbf)-Aib-Asn(Trt)-Cys(Trt)-Tle-OH”: the crude mass in series [5] (scale 50 μmol) is on record as 200 mg.

As for “DOTA-Cmp-Thr-Aib-Pcf-[Cys-Lys(Me)-RMe2a-Aib-Asn-Cys]-Tle-Thr-NH2”, in series [3] (setting [8]), the isolated mass stood at 8.99 mg and the isolated yield is recorded as 9.8%.

“DOTA-Cmp-Thr-Aib-Pcf-[Cys-Lys-Arg(EtCAyl)-Aib-Asn-Cys]-Tle-Thr-NH2”: in series [3] (setting [8]), the isolated mass is 7.75 mg and the isolated yield was determined as 8.3%. As to “DOTA-Cmp-Thr-Aib-Pcf-[Cys-Lys-Arg-Aib-Asn-Cys]-Tle-en(Me)”, in series [5] (scale 50 μmol), the isolated mass is reported as 18.91 mg. The substance further came in with an isolated yield in series [1] (setting [8]) of 21.6%. In series [3] (setting [8]), “DOTA-Cmp-Thr-Aib-Pcf-[Cys-Lys-Urr-Aib-Asn-Cys]-Tle-Thr-NH2” gave an isolated mass of 11.5 mg and an isolated yield of 12.7%.

In series [6], “DOTA-Cmp-Thr-Aib-Pcf-[Smc-Lys(Me)-Arg(Me)-Aib-Asn-Cys]-Tle-NH2” showed an isolated mass of 6.44 mg and an isolated yield of 7.4%. In series [5] (scale 50 μmol), “DOTA-Pamb-Aib-Pcf-[Cys-Lys-Arg-Aib-Asn-Cys]-Tle-en” had an isolated mass of 22.81 mg and an isolated yield of 27.7%. Substance “EuDOTA-Cmp-Thr-Aib-Pcf-[Cys-Lys-Arg-Aib-Asn-Cys]-Tle-Thr-NH2” returned a step yield in series [1] (one disulfide bridge) of 72.1%. Still for that read-out and setting: for “GaDOTA-Ttds-Thr-Aib-Phe-[Cys-Lys-Arg-Ala-Asn-Cys]-Tle-Thr-NH2” the value was 86%. The substance “H-Cmp-Thr(tBu)-Aib-Pcf-[Cys-Lys(Me,Boc)-Arg(Me,Pbf)-Aib-Asn(Trt)-Cys]-Tle-Thr(tBu)-NH2” displayed an isolated mass in series [1] (scale 100 μmol) of 49.66 mg.

For the substance “Hex-Thr-Aib-Pcf-[Cys-Lys-Arg-Aib-Asn-Cys]-Tle-Thr-lys(DOTA-Cmp)-NH2”, in series [3] (setting [8]), the isolated mass was 13.52 mg and the isolated yield is on record as 13.4%. The substance “InDOTA-Ttds-Thr-Aib-Phe-[Cys-Lys-Arg-Ala-Asn-Cys]-Tle-Thr-Asp-NH2” yielded a step yield in series [1] (one disulfide bridge) of 67.3%. “LaDOTA-Cmp-Thr-Aib-Pcf-[Cys-Lys(Me)-Arg(Me)-Aib-Asn-Cys]-Tle-Thr-NH2” had a step yield in series [1] (one disulfide bridge) of 56.08%.

Turning to “LuDOTA-Cmp-Thr-Aib-Phe-[Cys-Lys-Arg-Aib-Asn-Cys]-Tle-Thr-NH2”, the step yield in series [1] (one disulfide bridge) came out at 66.9%. In turn, “Macropa-Cmp-Thr-Aib-Pcf-[Cys-Lys(Me)-Arg(Me)-Aib-Asn-Cys]-Tle-Thr-NH2” showed an isolated yield in series [1] (overall, scale 100 μmol) of 1.1% overall yield. In series [3] (scale 50 μmol), “N3Ahx-Ttds-Ttds-Thr-Aib-Phe-[Cys-Lys-Arg-Aib-Asn-Cys]-Tle-Thr-Asp-NH2” displayed an isolated mass of 14.39 mg. This substance showed an isolated yield in series [1] (scale 50 μmol) of 9.9%. Consider “PbDOTA-Cmp-Thr-Aib-Pcf-[Cys-Lys(Me)-Arg(Me)-Aib-Asn-Cys]-Tle-Thr-NH2”, for which the step yield in series [1] (one disulfide bridge) was determined as 78.44%. As to “nBuCAyl-Thr-Aib-Pcf-[Cys-Lys-Cit-Aib-Asn-Cys]-Tle-Thr-lys(DOTA-Cmp)-NH2”, in series [3] (setting [8]), the isolated mass came out at 17.42 mg and the isolated yield is recorded as 17.2%.
